# Reference: PubChem BioAssay AID256 (DTP/NCI, 2004)
# The list shows only some results of the screen, not a fair sample: it is rich in T/C values a quarter to a half above the control, in often repeated tests (any T/C) and in doses without a T/C. Other doses and runs of a compound stand elsewhere. T/C gives the treated animals as a percentage of the vehicle group. Some doses have a count of surviving animals in place of a T/C: the source holds a T/C of zero for them, seemingly a mark for toxic or unscored doses. Some doses without a T/C left all or most animals alive at the check, yet need not have been tolerated: the source hardly ever lists a survival T/C far under the control, and the zero likely stands for such cases as well. Survivors were counted at the toxicity check, usually on the fifth day, unless a day is given; later deaths do not show. Schedules are NCI's codes, read here as Q, the interval in days (D) or hours (H), X, the number of doses. Some entries hold several experiments; their values stand side by side, smallest first. For survival time, this PubChem deposit counts one and a half times the control or more as active, and values a quarter to a half above the control carry no call in these data; other NCI protocols may use other cut-offs. Some T/C values carry the count of animals alive at the toxicity check (mostly the fifth day); where none is given, no animal had died by that day.
# System: CD2F1 mice, L1210 leukemia ip, survival T/C
# Assay: NCI In Vivo Anticancer Drug Screen. Data for tumor model L1210 Leukemia (intraperitoneal) in CD2F1 (CDF1) mice
# Conditions: higher T/C = longer survival
# Protocol: The antitumor activity of compounds was measured in mice bearing transplantable tumors. Survival or tumor size were measured and the results are expressed as the measurement made in the treated group (T) divided by the measurement made in the vehicle treated control group (C). The tumor model used in this assay is L1210 Leukemia (intraperitoneal) in CD2F1 (CDF1) mice
# [1] = T/C endpoint: mean survival time, dose: 400.0 mg/kg/injection, schedule: Q01DX009 (ip), vehicle: saline with Tween-80
# [2] = T/C endpoint: mean survival time, dose: 200.0 mg/kg/injection, schedule: Q01DX001 (ip), vehicle: saline
# [3] = T/C endpoint: mean survival time, dose: 400.0 mg/kg/injection, schedule: Q01DX001 (ip), vehicle: saline
# [4] = T/C endpoint: mean survival time, dose: 400.0 mg/kg/injection, schedule: Q01DX009 (ip), vehicle: other
# [5] = T/C endpoint: mean survival time, dose: 100.0 mg/kg/injection, schedule: Q04DX003 (ip), vehicle: saline with Tween-80
# [6] = T/C endpoint: mean survival time, dose: 400.0 mg/kg/injection, schedule: Q04DX003 (ip), vehicle: saline with Tween-80
# [7] = T/C endpoint: mean survival time, dose: 200.0 mg/kg/injection, schedule: Q04DX003 (ip), vehicle: saline with Tween-80
# [8] = T/C endpoint: mean survival time, dose: 150.0 mg/kg/injection, schedule: Q01DX001 (ip), vehicle: saline
# [9] = T/C endpoint: mean survival time, dose: 300.0 mg/kg/injection, schedule: Q01DX001 (ip), vehicle: saline
smiles,measurement,setting,value
CC(C)c1ccc(C2CCCCC2O)cc1 (stereo unspecified),survivor count,[1],6 of 6
c1ccc(CCNCc2ccccn2)nc1,survivor count,[2],0 of 6
same,survivor count,[3],0 of 6
CC(C#N)(Nc1ccccc1)c1ccco1 (stereo unspecified),survivor count,[4],0 of 6
CCOC(=O)c1ccc(OC(=O)Nc2cc(OC)ccc2OC)cc1,survivor count,[1],4 of 6
C1CCC(CCC2CCCC[N-]2)[N-]C1.C1CCC(CCC2CCCC[N-]2)[N-]C1.[Ni+2].[O-][Cl+3]([O-])([O-])O (stereo unspecified),survivor count,"T/C endpoint: mean survival time, dose: 25.0 mg/kg/injection, schedule: Q01DX001 (ip), vehicle: saline with Tween-80",3 of 3
same,T/C,"T/C endpoint: mean survival time, dose: 50.0 mg/kg/injection, schedule: Q01DX001 (ip), vehicle: saline with Tween-80",139 % of control
same,T/C,"T/C endpoint: mean survival time, dose: 50.0 mg/kg/injection, schedule: Q01DX001 (ip), vehicle: saline",131 % of control [2 of 3 alive]
same,survivor count,[2],0 of 3
same,survivor count,[3],0 of 3
CN(N=O)C(=O)NCC1CCC(CNC(=O)N(C)N=O)CC1 (stereo unspecified),survivor count,"T/C endpoint: mean survival time, dose: 600.0 mg/kg/injection, schedule: Q01DX001 (ip), vehicle: carboxymethylcellulose (CMC)",0 of 6
same,survivor count,"T/C endpoint: mean survival time, dose: 800.0 mg/kg/injection, schedule: Q01DX001 (ip), vehicle: carboxymethylcellulose (CMC)",0 of 6
same,survivor count,"T/C endpoint: mean survival time, dose: 1000.0 mg/kg/injection, schedule: Q01DX001 (ip), vehicle: carboxymethylcellulose (CMC)",1 of 6
N#CC1(NC(=O)N(CCCl)N=O)CCCCC1,T/C,"T/C endpoint: mean survival time, dose: 12.5 mg/kg/injection, schedule: Q01DX001 (ip), vehicle: distilled water + Tween-80, evaluated on day 30",126 % of control
same,T/C,"T/C endpoint: mean survival time, dose: 12.5 mg/kg/injection, schedule: Q01DX001 (ip), vehicle: distilled water + Tween-80, evaluated on day 40",130 % of control
same,T/C,"T/C endpoint: mean survival time, dose: 25.0 mg/kg/injection, schedule: Q01DX001 (ip), vehicle: distilled water + Tween-80",145 % of control
same,survivor count,"T/C endpoint: mean survival time, dose: 100.0 mg/kg/injection, schedule: Q01DX001 (ip), vehicle: distilled water + Tween-80",0 of 6 and 1 of 6
CCC(=O)Nc1cccc(OS(=O)(=O)N(C)C)c1,survivor count,[5],6 of 6
CCCCCOc1ccccc1Cl,survivor count,"T/C endpoint: mean survival time, dose: 400.0 mg/kg/injection, schedule: Q04DX002 (ip), vehicle: saline with Tween-80",0 of 3
CC(C)(C)NSc1nc2ccccc2s1,survivor count,[6],6 of 6
CC1(C)C=CC(C)(C)c2c(NS(=O)(=O)c3ccccc3)ccc(NS(=O)(=O)c3ccccc3)c21,survivor count,[7],6 of 6
CCCCCCCCCCCCCCCCCC(=O)NCCN(CC)CC,survivor count,[8],3 of 6
same,survivor count,[9],1 of 6
OC1CCCC[CH]1[Hg][Cl] (stereo unspecified),survivor count,"T/C endpoint: mean survival time, dose: 75.0 mg/kg/injection, schedule: Q01DX001 (ip), vehicle: saline",0 of 6
same,survivor count,[8],0 of 6
same,survivor count,[9],0 of 6
N#Cc1ccccc1C#N,survivor count,"T/C endpoint: mean survival time, dose: 50.0 mg/kg/injection, schedule: Q04DX003 (ip), vehicle: saline with Tween-80",1 of 3
same,survivor count,[5],0 of 3
C[N+](C)(C)Cc1ccccc1,survivor count,"T/C endpoint: mean survival time, dose: 25.0 mg/kg/injection, schedule: Q04DX003 (ip), vehicle: saline",4 of 6
same,survivor count,"T/C endpoint: mean survival time, dose: 50.0 mg/kg/injection, schedule: Q04DX003 (ip), vehicle: saline",0 of 6
same,survivor count,"T/C endpoint: mean survival time, dose: 100.0 mg/kg/injection, schedule: Q04DX003 (ip), vehicle: saline",6 of 6
same,survivor count,"T/C endpoint: mean survival time, dose: 200.0 mg/kg/injection, schedule: Q04DX003 (ip), vehicle: saline",4 of 6
same,survivor count,"T/C endpoint: mean survival time, dose: 400.0 mg/kg/injection, schedule: Q04DX003 (ip), vehicle: saline",0 of 6
CC12C(=O)OC(=O)C1(C)C1OC2C(Br)C1Br (stereo unspecified),survivor count,[7],3 of 6
same,survivor count,[6],1 of 6
Cc1c2ccc3ccccc3c2c[n+]2ccccc12,survivor count,"T/C endpoint: mean survival time, dose: 20.0 mg/kg/injection, schedule: Q01DX009 (ip), vehicle: Klucel (hydroxypropylcellulose) (HPC)",1 of 6
same,survivor count,"T/C endpoint: mean survival time, dose: 40.0 mg/kg/injection, schedule: Q01DX009 (ip), vehicle: Klucel (hydroxypropylcellulose) (HPC)",0 of 6
Nc1ccn([C@@H](C=O)C[C@@H](C=O)CO)c(=O)n1,T/C,"T/C endpoint: median survival time, dose: 200.0 mg/kg/injection, schedule: Q01DX009 (ip), vehicle: saline",137 and 149 % of control
Nc1ccc(S(=O)(=O)Nc2cnc3c(Cl)cccc3n2)cc1,survivor count,"T/C endpoint: median survival time, dose: 1200.0 mg/kg/injection, schedule: Q01DX005 (ip), vehicle: DMSO",0 of 6
CCC[S][Pb]([c]1ccccc1)([c]1ccccc1)[c]1ccccc1,survivor count,"T/C endpoint: mean survival time, dose: 100.0 mg/kg/injection, schedule: Q01DX001 (ip), vehicle: Klucel (hydroxypropylcellulose) (HPC)",2 of 6
same,survivor count,"T/C endpoint: mean survival time, dose: 200.0 mg/kg/injection, schedule: Q01DX001 (ip), vehicle: Klucel (hydroxypropylcellulose) (HPC)",0 of 6
same,survivor count,"T/C endpoint: mean survival time, dose: 400.0 mg/kg/injection, schedule: Q01DX001 (ip), vehicle: Klucel (hydroxypropylcellulose) (HPC)",0 of 6
CCOC(=O)/C(C#N)=N/O,survivor count,[8],0 of 6
same,survivor count,[9],0 of 6
NC(=O)c1ncc[nH]c1=O,survivor count,[6],3 of 6
CCN1CC1 (tested in a mixture with another compound),survivor count,"T/C endpoint: mean survival time, dose: 21.3 mg/kg/injection, schedule: Q04DX003 (ip), vehicle: Klucel (hydroxypropylcellulose) (HPC)",0 of 6
same,survivor count,"T/C endpoint: mean survival time, dose: 35.0 mg/kg/injection, schedule: Q04DX003 (ip), vehicle: acetone",2 of 6
same,survivor count,"T/C endpoint: mean survival time, dose: 50.0 mg/kg/injection, schedule: Q04DX003 (ip), vehicle: acetone",0 of 6
same,survivor count,"T/C endpoint: mean survival time, dose: 75.0 mg/kg/injection, schedule: Q04DX003 (ip), vehicle: acetone",0 of 6
CS(=O)(=O)N1CCCCC1,survivor count,[8],0 of 6
same,survivor count,[9],0 of 6
COC(=O)C(CCC(=O)C=[N+]=N)NC(=O)C(Cl)Cl (stereo unspecified),survivor count,"T/C endpoint: mean survival time, dose: 50.0 mg/kg/injection, schedule: Q01DX009 (ip), vehicle: saline with Tween-80",6 of 6
same,survivor count,"T/C endpoint: mean survival time, dose: 100.0 mg/kg/injection, schedule: Q01DX009 (ip), vehicle: saline with Tween-80",6 of 6
same,survivor count,"T/C endpoint: mean survival time, dose: 200.0 mg/kg/injection, schedule: Q01DX009 (ip), vehicle: saline with Tween-80",0 of 6
NCCS/C=C(\Br)C(=O)OCc1ccc(Br)cc1,survivor count,[6],0 of 6
Nc1nc2c(ncn2-c2ccc(Cl)c(Cl)c2)c(=O)[nH]1,survivor count,"T/C endpoint: mean survival time, dose: 200.0 mg/kg/injection, schedule: Q04DX002 (ip), vehicle: saline with Tween-80",3 of 3
C[CH2][Sn]([Cl])([Cl])[CH2]C.Oc1ccccc1C=NCCN=Cc1ccccc1O,survivor count,[5],0 of 6
same,survivor count,[7],0 of 6
same,survivor count,[6],0 of 6
O=C(O)CC(Sc1ccccc1)c1ccccc1 (stereo unspecified),survivor count,"T/C endpoint: mean survival time, dose: 400.0 mg/kg/injection, schedule: Q04DX003 (ip), vehicle: other",6 of 6
Nc1cccc(NC=O)c1,survivor count,"T/C endpoint: mean survival time, dose: 200.0 mg/kg/injection, schedule: Q04DX003 (ip), vehicle: Klucel (hydroxypropylcellulose) (HPC)",0 of 6
same,survivor count,"T/C endpoint: mean survival time, dose: 400.0 mg/kg/injection, schedule: Q04DX003 (ip), vehicle: Klucel (hydroxypropylcellulose) (HPC)",0 of 6
C=CCNc1ncnc2c1ncn2C1OC(CO)C(O)C1O (stereo unspecified),survivor count,"T/C endpoint: mean survival time, dose: 300.0 mg/kg/injection, schedule: Q01DX001 (ip), vehicle: other",0 of 6
COc1cc(CNC(=O)CCCC2CCC2)ccc1O,survivor count,[5],2 of 6
same,survivor count,[7],1 of 6
same,survivor count,[6],0 of 6
CC(=O)OCC1OC(n2cc(F)c(=O)[nH]c2=O)CC1OC(C)=O (stereo unspecified),T/C,"T/C endpoint: mean survival time, dose: 100.0 mg/kg/injection, schedule: Q01DX009 (ip), vehicle: other",132 % of control
same,T/C,[4],131 % of control
Nc1ccn(C2OC(CO)C(OP(=O)(O)O)C2O)c(=O)n1 (stereo unspecified),T/C,"T/C endpoint: mean survival time, dose: 50.0 mg/kg/injection, schedule: Q01DX009 (oral), vehicle: saline",136 % of control
same,T/C,"T/C endpoint: mean survival time, dose: 100.0 mg/kg/injection, schedule: Q01DX009 (oral), vehicle: saline",136 % of control
CC[C@@]1(O)C(=O)OCc2c1cc1n(c2=O)Cc2cc3c(CN(C)C)c(O)ccc3nc2-1,T/C,"T/C endpoint: median survival time, dose: 10.0 mg/kg/injection, schedule: Q04DX002 (ip), vehicle: water",147 % of control
